Assay results from publication PMC8893695, “The microprotein Nrs1 rewires the G1/S transcriptional machinery during nitrogen limitation in budding yeast” (PLoS Biology, 2022).
No constants are given. Whether binding was seen depends on the method and setting. For some of these results: Binding seen in cells or lysates may run through a third protein. Some results given as binding are weak or reduced against the parent protein; the word gives no strength. Where a sequence is shown, tags or fusion partners need not be part of it.

T1: ^FLAGMbp1 (S. cerevisiae) (UniProt P39678)
T1 sequence: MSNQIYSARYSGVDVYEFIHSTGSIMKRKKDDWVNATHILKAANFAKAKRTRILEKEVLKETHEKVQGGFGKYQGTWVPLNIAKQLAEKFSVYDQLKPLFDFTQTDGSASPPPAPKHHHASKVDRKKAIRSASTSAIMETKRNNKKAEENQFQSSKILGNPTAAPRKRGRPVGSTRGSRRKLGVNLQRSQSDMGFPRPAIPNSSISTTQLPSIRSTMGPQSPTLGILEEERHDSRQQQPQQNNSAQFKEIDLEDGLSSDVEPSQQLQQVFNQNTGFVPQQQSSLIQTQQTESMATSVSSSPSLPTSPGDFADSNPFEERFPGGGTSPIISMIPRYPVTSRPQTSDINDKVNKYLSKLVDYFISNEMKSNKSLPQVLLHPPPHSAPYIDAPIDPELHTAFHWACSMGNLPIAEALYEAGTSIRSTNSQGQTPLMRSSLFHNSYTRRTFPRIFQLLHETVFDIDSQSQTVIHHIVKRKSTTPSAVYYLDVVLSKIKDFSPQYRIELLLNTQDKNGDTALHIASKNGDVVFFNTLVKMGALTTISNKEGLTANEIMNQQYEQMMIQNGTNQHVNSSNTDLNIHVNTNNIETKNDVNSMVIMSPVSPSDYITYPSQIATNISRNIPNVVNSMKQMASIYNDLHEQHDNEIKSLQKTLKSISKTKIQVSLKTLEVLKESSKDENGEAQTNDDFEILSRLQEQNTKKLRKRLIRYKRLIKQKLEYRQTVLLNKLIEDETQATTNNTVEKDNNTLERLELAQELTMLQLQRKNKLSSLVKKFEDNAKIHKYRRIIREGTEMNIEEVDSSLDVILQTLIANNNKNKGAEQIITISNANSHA

T2: ^FLAGSwi4 (S. cerevisiae) (UniProt P25302)
T2 sequence: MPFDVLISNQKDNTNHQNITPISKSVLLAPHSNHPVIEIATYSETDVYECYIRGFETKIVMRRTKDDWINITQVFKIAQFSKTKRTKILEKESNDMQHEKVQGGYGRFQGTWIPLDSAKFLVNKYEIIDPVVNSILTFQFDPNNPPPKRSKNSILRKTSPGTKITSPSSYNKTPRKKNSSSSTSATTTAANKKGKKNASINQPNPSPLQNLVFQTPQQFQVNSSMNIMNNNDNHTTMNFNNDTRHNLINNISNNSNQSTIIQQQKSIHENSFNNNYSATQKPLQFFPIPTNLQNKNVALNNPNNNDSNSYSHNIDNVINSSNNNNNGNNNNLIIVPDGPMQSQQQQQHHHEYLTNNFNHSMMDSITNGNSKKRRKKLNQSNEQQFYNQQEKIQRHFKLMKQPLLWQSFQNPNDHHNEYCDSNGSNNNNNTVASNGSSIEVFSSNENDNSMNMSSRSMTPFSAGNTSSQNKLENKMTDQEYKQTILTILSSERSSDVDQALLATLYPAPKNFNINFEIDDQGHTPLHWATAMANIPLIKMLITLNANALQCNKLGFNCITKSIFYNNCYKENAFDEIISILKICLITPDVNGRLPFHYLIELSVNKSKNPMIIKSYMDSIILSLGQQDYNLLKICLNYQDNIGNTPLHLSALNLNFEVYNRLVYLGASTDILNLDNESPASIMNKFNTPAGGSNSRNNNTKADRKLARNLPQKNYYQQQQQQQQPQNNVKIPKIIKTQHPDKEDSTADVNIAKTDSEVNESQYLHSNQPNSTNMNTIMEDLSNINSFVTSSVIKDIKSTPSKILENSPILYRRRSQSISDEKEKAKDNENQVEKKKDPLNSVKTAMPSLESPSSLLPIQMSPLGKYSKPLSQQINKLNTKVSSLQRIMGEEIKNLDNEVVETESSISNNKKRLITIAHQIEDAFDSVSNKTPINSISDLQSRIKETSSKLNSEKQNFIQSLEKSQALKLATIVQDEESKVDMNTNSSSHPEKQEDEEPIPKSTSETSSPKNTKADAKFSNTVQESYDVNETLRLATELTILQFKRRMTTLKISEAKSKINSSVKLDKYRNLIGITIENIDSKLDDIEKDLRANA

T3: Swi4^3FLAG (S. cerevisiae) (UniProt P25302)
T3 sequence: T2 sequence

T4: Swi6^3FLAG (S. cerevisiae) (UniProt P09959)
T4 sequence: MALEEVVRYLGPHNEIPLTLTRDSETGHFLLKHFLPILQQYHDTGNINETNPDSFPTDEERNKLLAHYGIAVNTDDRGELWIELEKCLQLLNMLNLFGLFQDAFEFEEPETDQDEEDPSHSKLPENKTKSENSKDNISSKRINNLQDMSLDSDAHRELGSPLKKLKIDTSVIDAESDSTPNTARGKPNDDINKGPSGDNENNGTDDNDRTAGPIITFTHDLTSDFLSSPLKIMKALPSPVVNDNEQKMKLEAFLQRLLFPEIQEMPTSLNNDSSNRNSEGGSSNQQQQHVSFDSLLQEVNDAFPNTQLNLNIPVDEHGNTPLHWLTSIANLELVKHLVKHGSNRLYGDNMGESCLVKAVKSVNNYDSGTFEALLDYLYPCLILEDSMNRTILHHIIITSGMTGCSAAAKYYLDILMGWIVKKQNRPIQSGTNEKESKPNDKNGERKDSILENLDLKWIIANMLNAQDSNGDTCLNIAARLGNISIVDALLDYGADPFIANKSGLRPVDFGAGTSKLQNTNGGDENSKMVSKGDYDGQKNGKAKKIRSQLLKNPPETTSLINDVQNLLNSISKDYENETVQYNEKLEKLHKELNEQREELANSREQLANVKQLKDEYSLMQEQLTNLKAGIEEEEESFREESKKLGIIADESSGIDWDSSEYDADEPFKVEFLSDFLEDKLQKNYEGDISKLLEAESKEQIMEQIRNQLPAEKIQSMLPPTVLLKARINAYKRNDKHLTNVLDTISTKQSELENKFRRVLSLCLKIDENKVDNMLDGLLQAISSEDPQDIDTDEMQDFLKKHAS

B1: Swi6 (recombinant, insect cells) (protein, UniProt P09959 1-803)
chain: T4 sequence
B2: Whi5^13MYC (protein, UniProt Q12416 1-295)
chain: MSLRTPKRSRTSDEQEQEQEQEQVQNPDTHVNNEHQQRPGPTTLLSTPVRLKNGFGTPSPPSPPGITKSITKSRRRPSTTSLQGIFMSPVNKRRVGITAHGRVYDHNDDGHESESEDDENEEENENQKKYDGHVSMPLLPPTTPKSRRSEVFLSPSPRLRSPPTAARRSTGERPIREISHTLRTRLNYALVKLQNGWTDKTLPELETELAPAVQTPPRRYHNRFPDSADAGTSAHTAFLQALGGHPPREEATAVETLMLLSSPTKKQQHRPVPATSAGEPTDETEPESDTEVETS

Legend:
[1] = biological target: T1, ^FLAGMbp1 (S. cerevisiae); experiment: co-purification on anti-FLAG resin; complexes purified on anti-FLAG M2 resin from insect cells co-infected with baculovirus constructs, eluted with excess FLAG peptide
[2] = biological target: T2, ^FLAGSwi4 (S. cerevisiae); experiment: as above
[3] = biological target: T3, Swi4^3FLAG (S. cerevisiae); experiment: co-IP; Swi4^3FLAG or Swi6^3FLAG captured on anti-FLAG M2 resin from extracts of cells treated with 200 nM rapamycin (2 h; 3 h in the replicate); all alleles from endogenous promoters; blots with anti-FLAG and anti-MYC
[4] = biological target: T4, Swi6^3FLAG (S. cerevisiae); experiment: as above

Binder	binding [1]	binding [2]	binding [3]	binding [4]
B1	binds	binds	–	–
B2	–	–	binds	binds
